PMC3169597
Results are given in words; binding and its absence hold for the method and conditions named. Binding seen in cells or lysates may run through a third protein. Here binding means that the protein was enriched with, or labelled near, the bait; the list need not be complete. For part of these data: No binding means not detected with the bait. Sequences can lack the tags named with a protein.

Assays:
Test in all cases: affinity purification with mass spectrometry
FLAG-mGBP1(K51A) (mouse) = target: T1, FLAG-mGBP1(K51A) (mouse) (UniProt Q01514)
T1 sequence: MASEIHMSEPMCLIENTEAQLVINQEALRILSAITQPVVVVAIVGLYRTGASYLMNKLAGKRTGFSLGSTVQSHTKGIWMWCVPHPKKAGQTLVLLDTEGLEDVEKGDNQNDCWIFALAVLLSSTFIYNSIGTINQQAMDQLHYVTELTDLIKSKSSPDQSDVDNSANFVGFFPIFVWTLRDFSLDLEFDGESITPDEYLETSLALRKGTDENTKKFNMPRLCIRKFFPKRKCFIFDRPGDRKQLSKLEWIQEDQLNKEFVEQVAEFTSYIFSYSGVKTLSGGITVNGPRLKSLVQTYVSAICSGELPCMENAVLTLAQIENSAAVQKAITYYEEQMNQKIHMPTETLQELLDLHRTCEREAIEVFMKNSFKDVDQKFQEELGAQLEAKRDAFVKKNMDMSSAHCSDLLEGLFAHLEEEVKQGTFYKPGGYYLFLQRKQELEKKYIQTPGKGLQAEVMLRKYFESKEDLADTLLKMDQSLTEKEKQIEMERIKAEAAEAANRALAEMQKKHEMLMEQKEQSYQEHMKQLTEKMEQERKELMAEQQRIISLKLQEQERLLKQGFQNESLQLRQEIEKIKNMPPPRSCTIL

[1] = target: T2, FLAG-tagged mGBP1 wild-type protein (murine guanylate-binding protein 1) (mouse) (UniProt Q01514)
T2 sequence: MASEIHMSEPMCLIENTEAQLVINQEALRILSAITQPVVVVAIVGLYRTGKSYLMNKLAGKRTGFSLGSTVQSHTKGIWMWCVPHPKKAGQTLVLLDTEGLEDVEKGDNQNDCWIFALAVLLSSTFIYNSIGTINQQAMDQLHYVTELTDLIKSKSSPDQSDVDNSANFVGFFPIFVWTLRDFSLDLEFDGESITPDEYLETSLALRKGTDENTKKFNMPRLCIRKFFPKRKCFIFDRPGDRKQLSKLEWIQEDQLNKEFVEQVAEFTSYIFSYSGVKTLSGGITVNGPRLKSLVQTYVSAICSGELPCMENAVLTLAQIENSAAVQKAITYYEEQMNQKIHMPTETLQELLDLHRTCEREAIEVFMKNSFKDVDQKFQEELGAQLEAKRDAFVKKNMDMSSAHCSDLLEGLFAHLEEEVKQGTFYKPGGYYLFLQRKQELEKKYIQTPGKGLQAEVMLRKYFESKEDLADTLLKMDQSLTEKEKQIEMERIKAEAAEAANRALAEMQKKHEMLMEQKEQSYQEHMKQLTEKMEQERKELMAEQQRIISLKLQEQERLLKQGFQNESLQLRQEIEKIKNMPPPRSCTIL

FLAG-mGBP1(R48A) (mouse) = target: T3, FLAG-mGBP1(R48A) (mouse) (UniProt Q01514)
T3 sequence: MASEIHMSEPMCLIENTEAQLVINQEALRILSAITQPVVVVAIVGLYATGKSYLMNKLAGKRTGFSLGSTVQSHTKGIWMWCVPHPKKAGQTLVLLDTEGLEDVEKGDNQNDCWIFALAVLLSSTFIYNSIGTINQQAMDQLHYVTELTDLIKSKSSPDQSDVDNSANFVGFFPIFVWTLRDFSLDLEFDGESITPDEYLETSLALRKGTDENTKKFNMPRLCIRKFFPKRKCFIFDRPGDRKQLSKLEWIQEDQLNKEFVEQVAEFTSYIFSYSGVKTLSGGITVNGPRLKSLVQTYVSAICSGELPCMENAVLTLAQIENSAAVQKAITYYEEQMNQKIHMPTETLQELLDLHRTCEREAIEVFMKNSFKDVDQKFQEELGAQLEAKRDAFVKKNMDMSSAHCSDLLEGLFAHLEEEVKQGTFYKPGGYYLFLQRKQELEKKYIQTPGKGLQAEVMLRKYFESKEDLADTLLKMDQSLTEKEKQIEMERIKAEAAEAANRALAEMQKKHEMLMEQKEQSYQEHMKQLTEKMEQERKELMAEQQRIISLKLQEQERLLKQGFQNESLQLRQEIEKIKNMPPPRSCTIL

Binder	binding (FLAG-mGBP1(K51A) (mouse))	binding [1]	binding (FLAG-mGBP1(R48A) (mouse))
mGBP2 (endogenous, found by MS/MS) (protein, UniProt Q9Z0E6 1-589) MASEIHMSEPMCLIENTEAQLVINQEALRILSAITQPVVVVAIVGLYRTGKSYLMNKLAGKRTGFSLGSTVQSHTKGIWMWCVPHPKKAGQTLVLLDTEGLEDVEKGDNQNDCWIFALAVLLSSTFIYNSIGTINQQAMDQLHYVTELTDLIKSKSSPDQSGVDDSANFVGFFPTFVWTLRDFSLELEVNGKPVTSDEYLEHSLTLKKGADKKTKSFNEPRLCIRKFFPKRKCFIFDRPAQRKQLSKLETLREEELCGEFVEQVAEFTSYILSYSSVKTLCGGIIVNGPRLKSLVQTYVGAISNGSLPCMESAVLTLAQIENSAAVQKAITHYEEQMNQKIQMPTETLQELLDLHRPIESEAIEVFLKNSFKDVDQKFQTELGNLLVAKRDAFIKKNMDVSSARCSDLLEDIFGPLEEEVKLGTFSKPGGYYLFLQMRQELEKKYNQAPGKGLQAEAMLKNYFDSKADVVETLLQTDQSLTEAAKEVEEERTKAEAAEAANRELEKKQKEFELMMQQKEKSYQEHVKKLTEKMKDEQKQLLAEQENIIAAKLREQEKFLKEGFENESKKLIREIDTLKQNKSSGKCTIL	no binding	binds	binds
mGBP4 (endogenous, found by MS/MS) (protein, UniProt A4UUI3 1-631) MTQPQMAPICLVENHNEQLSVNQEAIEILDKISQPVVVVAIVGWSHTGKSYLMNCLAGQNHVSGTLPTSQRFPSGLHRAVSDQGHLDVVHAPPHQARALVLLDTEGLGDVEKGDPKNDLWIFALSVLLSSTFVYNSMNTINHQALEQLHYVTELTELIRAKSSPNPHGIKNSTEFVSFFPDFVWTVRDFMLELKLNGEDITSDEYLENALKLIPGNNPRIQASNSARECIRRFFPNRKCFVFEWPTHDIELIKQLETISEDQLDPTFKESAMAFASYIFTYAKIKTLREGIKVTGNGLGTLVTTYVDAINSGAVPCLDDAVTTLAQRENSVAVQKAASHYSEQMAQRLSLPTDTIQELLDVHAACEKEAMAVFMEHSFKDENQQFLKKLVELLREKNGLFLLKNEEASDKYCQEELDRLSKDLMDNISTFSVPGGHRLYMDMREKIEHDYWQVPRKGVKASEVFQNFLQSQAIIESSILQADTALTAGQKAIAEKHTKKEAAEKEQDLLRQKQKEHQEYMEAQEKRNKENLEQLRRKLEQEREQLIKDHNMMLEKLTKEQKTFREEGYKTQAEELRREIHQLGHNIKEMKQNGDSLVESILRSWFSFISPPSESEKAISSVLSLLRKKDRL	no binding	binds	binds
mGBP5 (endogenous, found by MS/MS) (protein, UniProt Q8CFB4 1-590) MAPEIHMPEPLCLIGSTEGHLVTNQEALKILSAITQPVVVVAIVGLYRTGKSYLMNKLAGKEKGFSVGSTVQSHTKGIWMWCVPHPQKPDHTLVLLDTEGLGDVEKDDKKNDTQIFALAILLSSTFVYNTMNKIDQGAIDLLHNVTELTDLLRTRNSSDSNQTEGEGPADMSFFPDLVWTLRDFFLDLQANGHAITSDEYLENSLKLKQGSDERTQTFNLPRLCIQKFFPVKKCFVFDAPALGSKLSQLPTLSNEELNSDFVQDLSEFCSHIFTQSKTKTLPGGIQVNGPRLESLVLTYVDAINSGALPSIENTVVTLARRENSAAVQKAIGHYDQLMSEKVQLPTETLQELLDLHRTCEREAIEIFRKHSFKDEGEFFQKELESLLSAKQDEICKKNADASAALCSTLLGSIFKPLEQEVAQEFYHKPGGHKLFLQRMEQLKANYRQQPGKGTQAEEVLQTYLNAKETVSRTILQTDQVLTDKEIQSKAEQERAEAARLEAQRLEAIRIQEEQRKAEMERQHQEQLRQIALEKARVAQEQQWILKQRAQEEADRIKAEQEAQLRALQQQLQHMREMNHHRRHHHDCVIS	no binding	binds	binds
